Here are results for 1 molecule from publication PMC12229684.

These are yes or no findings as the source states them, for the method shown. In cells and extracts the contact can be indirect. Some entries that bind do so weakly or less than the wild type. Where a sequence is shown, tags or fusion partners need not be part of it.

The target of the test is T1, epidermal growth factor latrophilin and seven transmembrane domain-containing protein 1 (ELTD1), Flag-tagged (human) (UniProt Q9HBW9).
T1 sequence: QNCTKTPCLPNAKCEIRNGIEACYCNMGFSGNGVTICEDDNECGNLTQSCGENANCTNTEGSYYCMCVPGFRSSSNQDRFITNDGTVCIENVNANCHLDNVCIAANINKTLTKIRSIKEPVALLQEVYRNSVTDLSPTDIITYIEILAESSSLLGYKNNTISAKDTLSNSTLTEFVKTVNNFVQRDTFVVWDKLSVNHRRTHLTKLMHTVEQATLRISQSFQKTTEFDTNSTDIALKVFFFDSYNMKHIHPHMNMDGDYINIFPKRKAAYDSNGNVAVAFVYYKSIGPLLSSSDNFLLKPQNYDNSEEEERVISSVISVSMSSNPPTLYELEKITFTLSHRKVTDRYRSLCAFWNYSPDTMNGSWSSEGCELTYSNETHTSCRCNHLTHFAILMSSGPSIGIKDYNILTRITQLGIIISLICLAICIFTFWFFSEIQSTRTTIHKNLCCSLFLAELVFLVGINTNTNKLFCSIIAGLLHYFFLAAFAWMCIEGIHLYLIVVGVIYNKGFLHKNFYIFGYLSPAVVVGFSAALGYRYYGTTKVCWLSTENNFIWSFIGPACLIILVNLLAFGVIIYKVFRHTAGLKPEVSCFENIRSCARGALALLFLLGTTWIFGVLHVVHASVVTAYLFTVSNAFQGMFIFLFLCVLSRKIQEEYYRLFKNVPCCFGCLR
The experiment in a line: co-IP; lysate in GPCR extraction and stabilization reagent with protease inhibitors, anti-Flag M2 magnetic beads at 4 °C overnight, washed with TBS, western blotting. A general note: Immunoblotting shows a protein as a band on a membrane.

B1: HPIP (hematopoietic PBX1-interacting protein) (protein, UniProt Q96AQ6 1-731)
chain: MASCPDSDNSWVLAGSESLPVETLGPASRMDPESERALQAPHSPSKTDGKELAGTMDGEGTLFQTESPQSGSILTEETEVKGTLEGDVCGVEPPGPGDTVVQGDLQETTVVTGLGPDTQDLEGQSPPQSLPSTPKAAWIREEGRCSSSDDDTDVDMEGLRRRRGREAGPPQPMVPLAVENQAGGEGAGGELGISLNMCLLGALVLLGLGVLLFSGGLSESETGPMEEVERQVLPDPEVLEAVGDRQDGLREQLQAPVPPDSVPSLQNMGLLLDKLAKENQDIRLLQAQLQAQKEELQSLMHQPKGLEEENAQLRGALQQGEAFQRALESELQQLRARLQGLEADCVRGPDGVCLSGGRGPQGDKAIREQGPREQEPELSFLKQKEQLEAEAQALRQELERQRRLLGSVQQDLERSLQDASRGDPAHAGLAELGHRLAQKLQGLENWGQDPGVSANASKAWHQKSHFQNSREWSGKEKWWDGQRDRKAEHWKHKKEESGRERKKNWGGQEDREPAGRWKEGRPRVEESGSKKEGKRQGPKEPPRKSGSFHSSGEKQKQPRWREGTKDSHDPLPSWAELLRPKYRAPQGCSGVDECARQEGLTFFGTELAPVRQQELASLLRTYLARLPWAGQLTKELPLSPAFFGEDGIFRHDRLRFRDFVDALEDSLEEVAVQQTGDDDEVDDFEDFIFSHFFGDKALKKRSGKKDKHSQSPRAAGPREGHSHSHHHHHRG
Take B1: the binding result was “binds”.
